No constants are given. Whether binding was seen depends on the method and setting. In cells and extracts the contact can be indirect. Some results given as binding are weak or reduced against the parent protein; the word gives no strength.
Columns and labels:
[1] = target: Flag-tagged ARIH2 (Ariadne homolog 2) (human) (UniProt O95376); assay: co-IP; Flag-ARIH2 and MYC-p21 cotransfected into 293FT cells; lysates in IP lysis buffer immunoprecipitated with anti-Flag or anti-MYC antibody overnight at 4 °C, protein A + G agarose beads, blotted with anti-MYC or anti-Flag
[2] = target: endogenous ARIH2 (human (endogenous in SGC7901)) (UniProt O95376); assay: co-IP; endogenous proteins; SGC7901 cell lysates immunoprecipitated with control IgG or ARIH2 antibody, blotted with p21 antibody
[3] = target: endogenous p21 (human (endogenous in SGC7901)) (UniProt P38936); assay: as above
[4] = target: MYC-tagged p21 (CDKN1A, p21WAF1/CIP1) (human) (UniProt P38936); assay: co-IP; Flag-ARIH2 and MYC-p21 cotransfected into 293FT cells; lysates in IP lysis buffer immunoprecipitated with anti-Flag or anti-MYC antibody overnight at 4 °C, protein A + G agarose beads, blotted with anti-MYC or anti-Flag

Sequences of proteins named here, by UniProt entry; tags and fusion partners are left off.
UniProt O95376: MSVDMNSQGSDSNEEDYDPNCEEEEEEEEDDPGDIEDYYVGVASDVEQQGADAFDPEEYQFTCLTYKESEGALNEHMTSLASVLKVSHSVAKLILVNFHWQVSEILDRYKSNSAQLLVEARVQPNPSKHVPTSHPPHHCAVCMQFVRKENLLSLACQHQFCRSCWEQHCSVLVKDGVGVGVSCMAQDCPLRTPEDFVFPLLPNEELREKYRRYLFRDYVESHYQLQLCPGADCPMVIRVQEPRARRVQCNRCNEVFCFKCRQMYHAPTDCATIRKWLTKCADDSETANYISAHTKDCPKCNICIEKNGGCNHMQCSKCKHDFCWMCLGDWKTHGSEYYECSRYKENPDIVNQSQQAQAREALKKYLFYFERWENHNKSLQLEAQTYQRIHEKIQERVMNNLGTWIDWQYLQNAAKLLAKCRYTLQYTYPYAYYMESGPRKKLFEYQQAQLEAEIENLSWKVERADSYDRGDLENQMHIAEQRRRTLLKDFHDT
UniProt P38936: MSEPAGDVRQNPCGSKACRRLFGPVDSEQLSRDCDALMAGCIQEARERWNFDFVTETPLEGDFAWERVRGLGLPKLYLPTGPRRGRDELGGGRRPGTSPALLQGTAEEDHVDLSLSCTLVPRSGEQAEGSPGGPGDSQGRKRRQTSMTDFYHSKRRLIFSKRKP

## MYC-tagged p21 (CDKN1A, p21WAF1/CIP1) (from UniProt P38936 1-164)
[1]
  binding: binds

## endogenous p21 (from UniProt P38936 1-164)
[2]
  binding: binds

## endogenous ARIH2 (from UniProt O95376 1-493) (enzyme)
[3]
  binding: binds

## Flag-tagged ARIH2 (Ariadne homolog 2) (from UniProt O95376 1-493) (enzyme)
[4]
  binding: binds
